According to publication PMC10130750, “The motor domain of the kinesin Kip2 promotes microtubule polymerization at microtubule tips” (The Journal of Cell Biology, 2023):
Results are given in words; binding and its absence hold for the method and conditions named.

Biological target: T1, coiled-coil domain of Bik1 (Bik1-CC, residues 182–396) (S. cerevisiae) (UniProt P11709)
T1 sequence: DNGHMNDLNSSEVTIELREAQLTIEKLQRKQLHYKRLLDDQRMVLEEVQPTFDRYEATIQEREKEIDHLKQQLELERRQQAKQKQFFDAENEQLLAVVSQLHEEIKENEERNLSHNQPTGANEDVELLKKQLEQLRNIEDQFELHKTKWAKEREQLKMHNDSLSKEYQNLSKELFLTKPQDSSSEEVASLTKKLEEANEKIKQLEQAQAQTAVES
Assay: SEC-MALS; 25°C; 20 mM Tris-HCl pH 7.5, 150 mM NaCl, 1 mM DTT; 4–8 mg/ml of each protein applied, single proteins and mixtures (Bik1-CC, Kip2-NMD, Kip2-NMD-ΔT); both purified

B1: Kip2-NMD-ΔT (truncated non-motor domain of Kip2, residues 504–645) (domain or fragment, S. cerevisiae, UniProt P28743 504-645, looked up)
chain: SNGNNDGDKDRTIELLRRQLEEQRRMISELKNRSNIGEPLTKSSNESTYKDIKATGNDGDPNLALMRAENRVLKYKLENCEKLLDKDVVDLQDSEIMEIVEMLPFEVGTLLETKFQGLESQIRQYRKYTQKLEDKIMALEKS
notes: Kip2 non-motor domain lacking the C-terminal tail, S. cerevisiae, residues 504–645; Dimer by SEC-MALS (34 kD); also called Kip2-NMD-∆T; source: E. coli BL21 (DE3), purified (IMAC, SEC); not shown: His6, N-terminal, cleaved
binding: no binding (tested: 4–8 mg/ml applied)
